According to article PMC5476288 (PLoS Pathogens, 2017):
Substitutions are numbered along the chain they refer to. These are yes or no findings as the source states them, for the method shown. In cells and extracts the contact can be indirect. Some results given as binding are weak or reduced against the parent protein; the word gives no strength. Where a sequence is shown, tags or fusion partners need not be part of it.

Key:
Experiment in all cases: co-IP
[1] = biological target: T1, Flag-ERRα (UniProt P11474)
T1 sequence: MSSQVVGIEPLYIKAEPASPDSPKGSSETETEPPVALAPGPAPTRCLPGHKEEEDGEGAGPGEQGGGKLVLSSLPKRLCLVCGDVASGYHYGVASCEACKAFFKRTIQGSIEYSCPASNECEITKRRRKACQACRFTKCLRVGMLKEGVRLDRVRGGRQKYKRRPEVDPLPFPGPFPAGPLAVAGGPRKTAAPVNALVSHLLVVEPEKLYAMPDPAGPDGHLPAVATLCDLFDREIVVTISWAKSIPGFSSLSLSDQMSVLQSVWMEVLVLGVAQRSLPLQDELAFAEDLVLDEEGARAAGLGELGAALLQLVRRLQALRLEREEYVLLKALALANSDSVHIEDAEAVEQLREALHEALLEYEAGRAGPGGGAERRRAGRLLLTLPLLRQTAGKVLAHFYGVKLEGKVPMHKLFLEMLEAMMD

[2] = biological target: T2, Flag-ERRα D338A (UniProt P11474)
T2 sequence: T1 sequence with D338A

[3] = biological target: T3, Flag-ERRα H8/9 mutant (UniProt P11474)
T3 sequence: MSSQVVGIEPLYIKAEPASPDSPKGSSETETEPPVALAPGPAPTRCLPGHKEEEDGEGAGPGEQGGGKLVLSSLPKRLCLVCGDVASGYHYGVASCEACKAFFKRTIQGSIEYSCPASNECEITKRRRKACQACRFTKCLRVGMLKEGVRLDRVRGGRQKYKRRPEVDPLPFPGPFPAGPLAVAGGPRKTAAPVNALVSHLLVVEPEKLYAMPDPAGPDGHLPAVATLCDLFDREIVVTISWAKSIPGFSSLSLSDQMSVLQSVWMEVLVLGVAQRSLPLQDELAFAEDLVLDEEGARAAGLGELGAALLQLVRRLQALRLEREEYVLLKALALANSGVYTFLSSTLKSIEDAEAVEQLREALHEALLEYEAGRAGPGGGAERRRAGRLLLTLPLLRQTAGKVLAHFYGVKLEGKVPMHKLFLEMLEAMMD

[4] = biological target: T4, Flag-ERRα Q262E (UniProt P11474)
T4 sequence: T1 sequence with Q262E

[5] = biological target: T5, Flag-IRF3 (human) (UniProt Q14653)
T5 sequence: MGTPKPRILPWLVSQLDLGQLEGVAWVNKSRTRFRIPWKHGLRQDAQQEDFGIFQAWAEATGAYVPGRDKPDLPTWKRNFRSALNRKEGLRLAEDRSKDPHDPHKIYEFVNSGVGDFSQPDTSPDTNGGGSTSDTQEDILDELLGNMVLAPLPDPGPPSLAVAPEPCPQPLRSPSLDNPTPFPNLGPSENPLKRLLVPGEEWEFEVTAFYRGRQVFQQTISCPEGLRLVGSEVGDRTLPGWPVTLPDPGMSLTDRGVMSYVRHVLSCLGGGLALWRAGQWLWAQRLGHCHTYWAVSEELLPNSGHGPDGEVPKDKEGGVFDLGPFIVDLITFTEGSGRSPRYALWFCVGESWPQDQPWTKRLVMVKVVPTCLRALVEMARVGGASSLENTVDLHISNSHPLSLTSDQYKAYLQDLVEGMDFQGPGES

binding [1]: binds | binding [2]: binds | binding [3]: binds | binding [4]: binds | binding [5]: binds
B1: HA-TBK1 (enzyme, UniProt Q9UHD2 1-729)
chain: MQSTSNHLWLLSDILGQGATANVFRGRHKKTGDLFAIKVFNNISFLRPVDVQMREFEVLKKLNHKNIVKLFAIEEETTTRHKVLIMEFCPCGSLYTVLEEPSNAYGLPESEFLIVLRDVVGGMNHLRENGIVHRDIKPGNIMRVIGEDGQSVYKLTDFGAARELEDDEQFVSLYGTEEYLHPDMYERAVLRKDHQKKYGATVDLWSIGVTFYHAATGSLPFRPFEGPRRNKEVMYKIITGKPSGAISGVQKAENGPIDWSGDMPVSCSLSRGLQVLLTPVLANILEADQEKCWGFDQFFAETSDILHRMVIHVFSLQQMTAHKIYIHSYNTATIFHELVYKQTKIISSNQELIYEGRRLVLEPGRLAQHFPKTTEENPIFVVSREPLNTIGLIYEKISLPKVHPRYDLDGDASMAKAITGVVCYACRIASTLLLYQELMRKGIRWLIELIKDDYNETVHKKTEVVITLDFCIRNIEKTVKVYEKLMKINLEAAELGEISDIHTKLLRLSSSQGTIETSLQDIDSRLSPGGSLADAWAHQEGTHPKDRNVEKLQVLLNCMTEIYYQFKKDKAERRLAYNEEQIHKFDKQKLYYHATKAMTHFTDECVKKYEAFLNKSEEWIRKMLHLRKQLLSLTNQCFDIEEEVSKYQEYTNELQETLPQKMFTASSGIKHTMTPIYPSSNTLVEMTLGMKKLKEEMEGVVKELAENNHILERFGSLTMDGGLRNVDCL
